Laboratory results taken from patent publication US7052676B2, “Methods for inhibition of HIV replication using a small molecule inhibitor” (priority 2000, dated 2006).
Some results were stated once for a whole list of compounds, not compound by compound.

Test system: MDM
Experiment: MTT assay of cellular viability, proliferation and activation in infected MDM
Format: cell-based, human
Conditions: day 13, all doses evaluated
Experimental: FIG. 3. […] MDM were treated as in FIGS. 1 and 2, and RT activity was measured every three to four days. MDM were also analyzed on day 13 by MTT assay (a measure of cellular viability, proliferation, and activation). Viability and activation was changed by less than 20% at all of the doses evaluated. For each treatment, viral replication was normalized against viability (RT activity/MTT assay) and then expressed relative to the control (no treatment). Data shown are the mean of three experiments;
In a preferred embodiment, the inhibitor is SB225002, a small molecular weight inhibitor that is an antagonist of IL-8 binding to CXCR2. In an alternate preferred embodiment, the inhibitor is antileukinate, a synthetic peptide inhibitor that interferes with both IL-8 and GRO-α binding to receptors. […] Infection of PBL with HIV-1BRU was inhibited by both the small molecule inhibitor, SB225002 (FIG. 29A), and the peptide, antileukinate (FIG. 29B). […] Cellular viability, proliferation, and activation were also analyzed in the infected cells by performing an MTT assay. […] Similarly, doses of antileukinate up to 10^−4 M in PBL and 10^−6 M in MDM reduced cellular viability by not more than 20%, and doses as low as 10^−8 M were effective at inhibiting HIV-1 replication. […]

## O=C(Nc1ccc([N+](=O)[O-])cc1O)Nc1ccccc1Br [SB225002, N-(2-hydroxy-4-nitrophenyl)-N′-(2-bromophenyl)urea, reference compound]
  change of viability and activation (MTT assay): less than 20%
